Measurements reported in PubChem BioAssay AID1259254 (NCATS, 2017).
This is an unselected part of about 59,000 deposited reagents. About 1,550 of all reagents (2.6%) were called active. 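G2 share is only a proxy for re-replication; each gene was hit by three separate siRNAs, and active genes were retested.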 Entries without a mark were called inactive. The numbers tell different reagents against one gene apart. Not all columns of the deposit are shown. Reagent sequences are not shown. Not given: the amount of reagent.

Aim: 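Gene knock-downs that lead to re-replication, shown by excess G2 DNA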 (primary screen)
Cell system: human HCT116 colorectal cancer cells
Knock-down reagent: single siRNA against human genes
Timing: 3 days
Read-out: 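Imaged Hoechst DNA stain sorts each cell into a cycle phase by DNA amount; per plate, G2 fraction set to 0% for non-targeting and 100% for GMNN siRNA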
Reading the numbers: G2 robust z-score: higher = more G2 cells, more excess DNA replication
Rule for the call: 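An siRNA counts as active if its G2 robust z-score lies at least 5 MADs above the screen median; here such calls match roughly 38% of GMNN control or more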

target gene,reagent no.,G2 robust z-score
FREM2,1,-0.286
FREM2,2,-0.509
FREM2,3,-0.386
PLIN5,1,2.08
PLIN5,2,0.0165
PLIN5,3,0.189
TSPAN8,1,0.225
TSPAN8,2,-0.1
TSPAN8,3,0.711
BLVRA,1,-0.81
BLVRA,2,-0.751
BLVRA,3,-0.797
PI4KA,1,0.615
PI4KA,2,2.25
PI4KA,3,1.84
KCNK5,1,-0.678
KCNK5,2,-0.109
KCNK5,3,0.393
ECEL1,1,1.54
ECEL1,2,-0.595
ECEL1,3,-0.618
LLGL1,1,-0.888
LLGL1,2,-0.195
LLGL1,3,-0.271
CHGB,1,2.44
CHGB,2,-0.289
CHGB,3,1.05
RPL29P23,1,9.73 (active)
RPL29P23,2,0.623
RPL29P23,3,6.55 (active)
SAGE2P,1,0.134
SAGE2P,2,-0.499
SAGE2P,3,3.33

5 entries from above, reformatted.
| target gene | reagent no. | G2 robust z-score |
| --- | --- | --- |
| LLGL1 | 2 | -0.195 |
| LLGL1 | 3 | -0.271 |
| CHGB | 1 | 2.44 |
| CHGB | 2 | -0.289 |
| CHGB | 3 | 1.05 |

The listing continues:
target gene,reagent no.,G2 robust z-score
PRRT2,1,2.32
PRRT2,2,-0.749
PRRT2,3,-1.03
E2F6P4,1,1.19
E2F6P4,2,0.92
E2F6P4,3,0.598
RSRC1,1,-0.133
RSRC1,2,0.291
RSRC1,3,2.19
TTLL10,1,-0.472
TTLL10,2,2.36
TTLL10,3,1.14
ZNF837,1,0.885
ZNF837,2,0.00976
ZNF837,3,1.12
SATB2,1,1.01
SATB2,2,0.982
SATB2,3,0.862
FAM220A,1,-0.761
FAM220A,2,-1.53
FAM220A,3,0.645
ZFP92,1,-0.151
ZFP92,2,-0.571
ZFP92,3,1.1
ZNF136,1,-1.06
ZNF136,2,0.244
ZNF136,3,-1.13
HNRNPA3,1,0.224
HNRNPA3,2,-0.743
HNRNPA3,3,-1.31
TIPE2,1,1.26
TIPE2,2,-0.647
TIPE2,3,-0.301
ATP5MC3,1,1.96
ATP5MC3,2,1.06
ATP5MC3,3,-1.09
